Experimental data from the supplement of paper PMC11006884.
The list shows a part of the results, in another mix than the full data. This is a noisy data set.

compound: COC(=O)/C=C/c1ccccc1 [methyl cinnamate]; assay: log2 ratio of iodoacetamide-alkyne labeling of the cysteine site, DMSO over compound (competition); higher = stronger covalent engagement of the cysteine by the compound, active = 1 or more; conditions: 500 µM; treatment time 1 h; system: HEK293T cell lysate
Summary of the method: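 Three replicates, each with duplicate channels, were prepared from HEK293T lysate (2 mg/mL) treated with vehicle or electrophile at 500 µM for 1 h at ambient temperature. Iodoacetamide alkyne was then applied for 1 h, and samples were clicked to sCIP-TMT reagents, pooled, trypsin-digested overnight at 37 °C, enriched on streptavidin, acid-eluted and analysed on Orbitrap Eclipse LC-MS/MS with FAIMS, with FragPipe quantification. The log2 competition ratio per cysteine is the mean control-channel divided by the mean compound-channel reporter intensity. Cysteines quantified in only one replicate were left out.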

log2 ratio of iodoacetamide-alkyne labeling, inactive:
CELSR2 C2646 (UniProt Q9HCU4) 0.267
WDR26 C656 (UniProt Q9H7D7) 0.159
UNC45A C384 (UniProt Q9H3U1) -0.0492
UniProt Q9H8G2_C226 0.241
MDN1 C3528 (UniProt Q9NU22) 0.048
ANLN C210 (UniProt Q9NQW6) 0.104
OSBPL3 C203 (UniProt Q9H4L5) 0.299
RABEP2 C115 (UniProt Q9H5N1) 0.61
XPNPEP1 C342 (UniProt Q9NQW7) -0.302
ACAD9 C179 (UniProt Q9H845) 0.0212
GRPEL1 C124 (UniProt Q9HAV7) 0.339
C8orf33 C21 (UniProt Q9H7E9) 0.107
PNO1 C64 (UniProt Q9NRX1) 0.0827
LUC7L C43 (UniProt Q9NQ29) 0.176
TTC12 C525 (UniProt Q9H892) 0.31
MDN1 C4345 (UniProt Q9NU22) -0.11
CD320 C139 (UniProt Q9NPF0) 0.373
PPAN C432 (UniProt Q9NQ55) 0.263
HELLS C205 (UniProt Q9NRZ9) 0.121
IARS2 C414 (UniProt Q9NSE4) 0.171
BICC1 C621 (UniProt Q9H694) 0.495
TFB2M C383 (UniProt Q9H5Q4) 0.199
UniProt Q9H773_C162 0.0811
ZNF277 C137 (UniProt Q9NRM2) 0.136
RNPEP C254 (UniProt Q9H4A4) -0.0451
CHD8 C1980 (UniProt Q9HCK8) 0.195
XPO5 C736 (UniProt Q9HAV4) 0.278
YTHDC2 C1265 (UniProt Q9H6S0) 0.603
UNC45A C34 (UniProt Q9H3U1) -0.0249
ATP13A1 C336 (UniProt Q9HD20) 0.108
PHAX C51 (UniProt Q9H814) 0.416
MBNL1 C53 (UniProt Q9NR56) 0.225
XPO5 C941 (UniProt Q9HAV4) -0.0404
GRPEL1 C108 (UniProt Q9HAV7) -0.322
OLA1 C117 (UniProt Q9NTK5) 0.176
FARSB C548 (UniProt Q9NSD9) -0.0162
AAAS C444 (UniProt Q9NRG9) 0.0683

A portion from the list above:
log2 ratio of iodoacetamide-alkyne labeling, inactive:
MDN1 C4345 (UniProt Q9NU22) -0.11
CD320 C139 (UniProt Q9NPF0) 0.373
PPAN C432 (UniProt Q9NQ55) 0.263
